Source: article doi:10.1101/2023.11.14.567006
Results are given in words; binding and its absence hold for the method and conditions named. In cells and extracts the contact can be indirect. Here binding means that the protein was enriched with, or labelled near, the bait; the list need not be complete.

B1: CmpC, subunit of the ABC-type bicarbonate transporter complex BCT1 (protein, UniProt Q55462 1-667)
chain: MSLFVAVDNIDKVFSLTDGGEYIALKGINLEIKKGEFVSLIGHSGCGKSTLLNMIAGLDLPSEGIVTLEGQRIKQPGPDKMVIFQNYSLLPWLTVKQNIALAVDEVMKGASAAERKAIVEEHINLVGLGHAVDKRPGELSGGMKQRVAIARALAIRPKLLLLDEPFGALDALTRGNLQEQLMRICEQYQVTAVMVTHDVDEAVLLSDRIVMLTNGPGSNIGGILEVDIPRPRKRMEVVEHPSYYSLRSEIIYFLNQQKRIKKLRAKKTTAIARHGLEKVNLELGYVPLVACAPLVVAQEKGFFAKHGLDEVSLVRETSWRGIVDGIAGGYLDGAQMPAGMPTWLTAGGYREQSIPVVSALTMTRNGNAITLSKKLYDQGIYTAEDFRQLLLASDGDRHTLGMVHPSSMHNLLLRYWLAAHNINPDRDVHLKTIPPAQMVADLKAGTIDGYCVSEPWNLRASMEGAGFSIATDLEIWQNHPGKVLGVREDWAIAHPNTHVALVKALLEACAYCADPNHEMEIRELLATRQYLSTNIDYIHLGDPEGRTCRLGNPVEYSHHLFFGDQFNRPSRTEHLWMMTQMARWGDIPFPRNWVEILERVCRVGVFSTAARELGYDVNYQRQPIALFDGKVFNADDPIAYLNQTVIHRNFTIAEVHLDNPTPAPVFA
B2: CmpD, subunit of the ABC-type bicarbonate transporter complex BCT1 (protein, UniProt Q55463 1-282)
chain: MQTLKSQRAMPTATPSDQKTTAFLTIENVSKVYPTAKGPYTVLENVNLTVNEGEFICVIGHSGCGKSTLLNMVSGFASPTDGSVQVGGKIITEPGPDRMVVFQNYALLPWLTALENVYIAVDAVHSQKTEAEKRAIAKDHLAMVGLTDSMDKKPGQISGGMKQRVSIARALAIRPEVLILDEPFGALDAITKEELQEELLQIWNDHRCTVLMITHDIDEALFLADRLVMMTNGPHANIGEIMTIPFSRPRDRDRIMEDPTYYQLRNYALDFLYNRFAHDDVA
B3: glycogen branching enzyme (GlgB) (enzyme, UniProt P52981 1-770)
chain: MTYTINADQVHQIVHNLHHDPFEVLGCHPLGDHGKVNQWVIRAYLPTAEAVTVLLPTDRREVIMTTVHHPNFFECVLELEEPKNYQLRITENGHERVIYDPYGFKTPKLTDFDLHVFGEGNHHRIYEKLGAHLMTVDGVKGVYFAVWAPNARNVSILGDFNNWDGRLHQMRKRNNMVWELFIPELGVGTSYKYEIKNWEGHIYEKTDPYGFYQEVRPKTASIVADLDGYQWHDEDWLEARRTSDPLSKPVSVYELHLGSWLHTAYDEPVKTLHGEGVPVEVSEWNTGARFLTYYELVDKLIPYVKELGYTHIELLPIAEHPFDGSWGYQVTGYYAPTSRFGSPEDFMYFVDQCHLNGIGVIIDWVPGHFPKDGHGLAFFDGTHLYEHGDPRKGEHKEWGTLIFNYGRNEVRNFLVANALFWFDKYHIDGMRVDAVASMLYLDYCREEGEWVANEYGGRENLEAADFLRQVNSVVYSYFPGILSIAEESTSWPMVSWPTYVGGLGFNLKWNMGWMHDMLDYFSMDPWFRQFHQNSITFSMWYNHSENYMLALSHDEVVHGKSNMLGKMPGDEWQKYANVRALFTYMFTHPGKKTMFMSMEFGQWSEWNVWGDLEWHLLNFPPHQQLKQFFTELNHLYKNEPALYSNDFDESGFQWIDCSDNRHSVVSFIRRAKNSAEFVVTICNFTPQPHSHYRVGVPVPGFYTELFNSDARQYGGSNMGNLGGKWTEEWSFHEQPYSLDLCLPPLSVLVLKLSQNAEENTVPAEEASNIA

The binders below were run against C-terminal His8-tagged SbtB (Synechocystis sp. PCC 6803) (assay: affinity purification with mass spectrometry).
For B1, the binding was “binds”. For B2, the binding was “binds”. In the case of B3, the binding is reported as “binds”.
